{
  "source": "patent EP4729529A1",
  "about": "(Xizang Haisco Pharmaceutical Co., Ltd., priority 2023, dated 2024)",
  "note": "Some peptides are written in HELM: one residue between dots, names in brackets for other building blocks, links after the first $.",
  "data": [
    {"assay": "general procedure: Fmoc solid-phase peptide synthesis; Rink Amide MBHA Resin", "details": "whole synthesis, scale 1 mmol", "units": {"crude mass": "g"}, "values": [
      {"substance": "PEPTIDE1{[ac].[Pen].H.T.[7MeTrp].Q.[Pen].[AEF].[2Nal].[Thp].E.N.[3Pal].[Sar].[am]}$PEPTIDE1,PEPTIDE1,2:R3-7:R3$$$V2.0", "crude mass": 2.4},
      {"substance": "PEPTIDE1{[ac].[Pen].H.T.[7MeTrp].[Cit].[Pen].[AEF].[2Nal].[Thp].E.N.[3Pal].[Sar].[am]}$PEPTIDE1,PEPTIDE1,2:R3-7:R3$$$V2.0", "crude mass": 2.5},
      {"substance": "PEPTIDE1{[ac].[Pen].H.T.[7MeTrp].[LysAc].[Pen].[Int3].[2Nal].[Thp].E.N.[3Pal].[Sar].[am]}$PEPTIDE1,PEPTIDE1,2:R3-7:R3$$$V2.0", "crude mass": 2.2}
    ]},
    {"assay": "general procedure: Fmoc solid-phase peptide synthesis; Rink Amide MBHA Resin (sub: 0.7 mmol/g)", "details": "oxidative folding step", "units": {"final purity (method not given)": "%"}, "values": [
      {"substance": "PEPTIDE1{[Ahx].[Pen].H.T.[7MeTrp].[LysAc].[Pen].[AEF].[2Nal].[Thp].E.N.[3Pal].[Sar].[am]}$PEPTIDE1,PEPTIDE1,2:R3-7:R3|PEPTIDE1,PEPTIDE1,1:R1-11:R3$$$V2.0", "final purity (method not given)": 99},
      {"substance": "PEPTIDE1{[ac].[Pen].H.T.[7MeTrp].Q.[Pen].[AEF].[2Nal].[Thp].E.N.[3Pal].[Sar].[am]}$PEPTIDE1,PEPTIDE1,2:R3-7:R3$$$V2.0", "final purity (method not given)": 99},
      {"substance": "PEPTIDE1{[ac].[Pen].H.T.[7MeTrp].[Cit].[Pen].[AEF].[2Nal].[Thp].E.N.[3Pal].[Sar].[am]}$PEPTIDE1,PEPTIDE1,2:R3-7:R3$$$V2.0", "final purity (method not given)": 99},
      {"substance": "PEPTIDE1{[ac].[Pen].H.T.[7MeTrp].[LysAc].[Pen].[Int3].[2Nal].[Thp].E.N.[3Pal].[Sar].[am]}$PEPTIDE1,PEPTIDE1,2:R3-7:R3$$$V2.0", "final purity (method not given)": 98}
    ]},
    {"assay": "general procedure: Fmoc solid-phase peptide synthesis; Rink Amide MBHA Resin (sub: 0.7 mmol/g)", "details": "whole synthesis, scale of the general procedure 1 mmol", "units": {"final purity (method not given)": "%"}, "values": [
      {"substance": "PEPTIDE1{[AEEA].[Pen].H.T.[7MeTrp].[LysAc].[Pen].[AEF].[2Nal].[Thp].E.N.[3Pal].[Sar].[am]}$PEPTIDE1,PEPTIDE1,2:R3-7:R3|PEPTIDE1,PEPTIDE1,1:R1-11:R3$$$V2.0", "final purity (method not given)": 99},
      {"substance": "PEPTIDE1{[AEP].[Pen].H.T.[7MeTrp].[LysAc].[Pen].[AEF].[2Nal].[Thp].E.N.[3Pal].[Sar].[am]}$PEPTIDE1,PEPTIDE1,2:R3-7:R3|PEPTIDE1,PEPTIDE1,1:R1-11:R3$$$V2.0", "final purity (method not given)": 95},
      {"substance": "PEPTIDE1{[C18DA].[gGlu].[AEEA].[AEEA].[Pen].H.T.[Int6].Q.[Pen].[Int3].[2Nal].[Int5].E.N.[3Pal].[Sar].[am]}$PEPTIDE1,PEPTIDE1,5:R3-10:R3$$$V2.0", "final purity (method not given)": 96},
      {"substance": "PEPTIDE1{[PEG4Ac].[Pen].H.T.[7MeTrp].[LysAc].[Pen].[AEF].[2Nal].[Thp].E.N.[3Pal].[Sar].[am]}$PEPTIDE1,PEPTIDE1,2:R3-7:R3|PEPTIDE1,PEPTIDE1,1:R1-11:R3$$$V2.0", "final purity (method not given)": 99},
      {"substance": "PEPTIDE1{[ac].C.H.T.[7MeTrp].Q.C.[Int3].[2Nal].[Int5].C.N.[3Pal].[Sar].[am]}|CHEM1{[TMT]}$PEPTIDE1,CHEM1,2:R3-1:R1|PEPTIDE1,CHEM1,7:R3-1:R2|PEPTIDE1,CHEM1,11:R3-1:R3$$$V2.0", "final purity (method not given)": 97},
      {"substance": "PEPTIDE1{[ac].D.H.T.[7MeTrp].Q.[Dab].[AEF].[2Nal].[Thp].E.N.[3Pal].[Sar].[am]}$PEPTIDE1,PEPTIDE1,2:R3-7:R3$$$V2.0", "final purity (method not given)": 87},
      {"substance": "PEPTIDE1{[ac].[Dap].H.T.[7MeTrp].Q.[Dap].[AEF].[2Nal].[Thp].E.N.[3Pal].[Sar].[am]}|CHEM1{[CO]}$PEPTIDE1,CHEM1,2:R3-1:R1|PEPTIDE1,CHEM1,7:R3-1:R2$$$V2.0", "final purity (method not given)": 95},
      {"substance": "PEPTIDE1{[ac].[Pcn].H.T.[Int6].Q.[Pen].[Int3].[2Nal].[Int5].E.N.[3Pal].[Sar].[am]}$PEPTIDE1,PEPTIDE1,2:R3-7:R3$$$V2.0", "final purity (method not given)": 96},
      {"substance": "PEPTIDE1{[ac].[Pen].H.T.[7MeTrp].Q.[Pen].[Int3].[2Nal].[Int5].E.N.[3Pal].[Sar].[am]}$PEPTIDE1,PEPTIDE1,2:R3-7:R3$$$V2.0", "final purity (method not given)": 98},
      {"substance": "PEPTIDE1{[ac].[Pen].H.T.[7MeTrp].[LysAc].[Pen].[AEF].[2Nal].[Thp].E.N.[3Pal].[Sar].[am]}$PEPTIDE1,PEPTIDE1,2:R3-7:R3$$$V2.0", "final purity (method not given)": 95},
      {"substance": "PEPTIDE1{[ac].[Pen].H.T.[Int6].K.[Pen].[Int3].[2Nal].[Int5].E.N.[3Pal].[Sar].[am]}|PEPTIDE2{[C18DA].[gGlu].[AEEA].[AEEA]}$PEPTIDE1,PEPTIDE1,2:R3-7:R3|PEPTIDE1,PEPTIDE2,6:R3-4:R2$$$V2.0", "final purity (method not given)": 97},
      {"substance": "PEPTIDE1{[ac].[Pen].H.T.[Int6].K.[Pen].[Int3].[2Nal].[Int5].E.N.[3Pal].[Sar].[am]}|PEPTIDE2{[ac].[gGlu].[AEEA].[AEEA]}$PEPTIDE1,PEPTIDE1,2:R3-7:R3|PEPTIDE1,PEPTIDE2,6:R3-4:R2$$$V2.0", "final purity (method not given)": 95},
      {"substance": "PEPTIDE1{[ac].[Pen].H.T.[Int6].Q.[Pen].[AEF].[2Nal].[Thp].E.N.[3Pal].[Sar].[am]}$PEPTIDE1,PEPTIDE1,2:R3-7:R3$$$V2.0", "final purity (method not given)": 98},
      {"substance": "PEPTIDE1{[ac].[Pen].H.T.[Int6].Q.[Pen].[Int3].[2Nal].[Int5].E.N.[3Pal].[Sar].[am]}$PEPTIDE1,PEPTIDE1,2:R3-7:R3$$$V2.0", "final purity (method not given)": 94},
      {"substance": "PEPTIDE1{[ac].[Pen].H.T.[Int6].[Cit].[Pen].[AEF].[2Nal].[Thp].E.N.[3Pal].[Sar].[am]}$PEPTIDE1,PEPTIDE1,2:R3-7:R3$$$V2.0", "final purity (method not given)": 98},
      {"substance": "PEPTIDE1{[ac].[Pen].N.T.[7MeTrp].[LysAc].[Pen].[AEF].[2Nal].[Int5].E.N.[3Pal].[Sar].[am]}$PEPTIDE1,PEPTIDE1,2:R3-7:R3$$$V2.0", "final purity (method not given)": 97},
      {"substance": "PEPTIDE1{[mPEG5Ac].[Pen].H.T.[Int6].Q.[Pen].[Int3].[2Nal].[Int5].E.N.[3Pal].[Sar].[am]}$PEPTIDE1,PEPTIDE1,2:R3-7:R3$$$V2.0", "final purity (method not given)": 94},
      {"substance": "PEPTIDE1{[mPEG9Ac].[Pen].H.T.[Int6].Q.[Pen].[Int3].[2Nal].[Int5].E.N.[3Pal].[Sar].[am]}$PEPTIDE1,PEPTIDE1,2:R3-7:R3$$$V2.0", "final purity (method not given)": 97},
      {"substance": "PEPTIDE1{[mPEG12Ac].[Pen].H.T.[Int6].Q.[Pen].[Int3].[2Nal].[Int5].E.N.[3Pal].[Sar].[am]}$PEPTIDE1,PEPTIDE1,2:R3-7:R3$$$V2.0", "final purity (method not given)": 92}
    ]}
  ]
}
